The list shows a part of the results.
Assays:
Experiment in all cases: log2 fold change, soluble protein after heating vs DMSO (PISA); higher = thermal stabilisation; K562 lysate, 10 uM; active = over 0.2 and 3.5 SD of the protein, either way, in both replicates (recomputed)
lapatinib = compound: CS(=O)(=O)CCNCc1ccc(-c2ccc3ncnc(Nc4ccc(OCc5cccc(F)c5)c(Cl)c4)c3c2)o1 [lapatinib]
How it was run: (§1)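 Values give the log-two fold change in thermal stability against solvent controls, from duplicates. Crude K562 extract at 1 mg/mL protein, made by dounce homogenisation in PBS pH 7.4 with 1 mM MgCl2, was treated with 10 μM compound for 30 min. After 3 min heating across 48°C-58°C, aliquots were pooled, adjusted to 0.5% NP-40 at 4°C and centrifuged at 21,000xg for 90 min. The supernatant was measured by TMTpro 16plex LC-MS/MS with channel sums equalised.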

Chains of the proteins cited; added tags and fusions are not shown. Lines headed by an entry give the natural chain unless they say otherwise; changes in a name come on top.
UniProt Q9P0W2: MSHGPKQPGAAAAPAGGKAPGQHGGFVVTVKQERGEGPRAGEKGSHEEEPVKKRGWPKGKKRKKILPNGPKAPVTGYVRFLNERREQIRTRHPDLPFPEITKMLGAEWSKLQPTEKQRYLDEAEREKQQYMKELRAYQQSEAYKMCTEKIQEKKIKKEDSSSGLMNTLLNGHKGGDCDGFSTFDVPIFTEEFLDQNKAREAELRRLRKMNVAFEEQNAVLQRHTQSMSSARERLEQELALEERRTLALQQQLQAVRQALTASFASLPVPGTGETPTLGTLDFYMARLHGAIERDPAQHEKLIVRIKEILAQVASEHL
UniProt O43390: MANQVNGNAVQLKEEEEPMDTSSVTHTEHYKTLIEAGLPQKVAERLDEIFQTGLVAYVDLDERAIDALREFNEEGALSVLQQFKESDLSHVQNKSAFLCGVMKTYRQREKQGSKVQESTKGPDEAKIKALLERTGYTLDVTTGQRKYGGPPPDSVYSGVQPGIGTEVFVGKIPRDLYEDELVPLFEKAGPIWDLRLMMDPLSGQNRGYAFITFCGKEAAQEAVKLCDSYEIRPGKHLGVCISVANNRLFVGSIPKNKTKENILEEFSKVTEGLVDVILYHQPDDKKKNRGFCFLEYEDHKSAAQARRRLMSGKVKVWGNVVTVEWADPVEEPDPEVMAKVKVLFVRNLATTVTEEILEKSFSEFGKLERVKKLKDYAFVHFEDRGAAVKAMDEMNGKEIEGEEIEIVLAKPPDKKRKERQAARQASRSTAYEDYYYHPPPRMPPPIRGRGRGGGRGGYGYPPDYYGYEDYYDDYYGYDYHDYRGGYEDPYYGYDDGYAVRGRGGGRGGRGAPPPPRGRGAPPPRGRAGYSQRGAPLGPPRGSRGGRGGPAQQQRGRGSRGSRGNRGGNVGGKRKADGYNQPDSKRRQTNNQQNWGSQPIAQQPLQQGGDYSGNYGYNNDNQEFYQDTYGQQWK
UniProt Q6AI08: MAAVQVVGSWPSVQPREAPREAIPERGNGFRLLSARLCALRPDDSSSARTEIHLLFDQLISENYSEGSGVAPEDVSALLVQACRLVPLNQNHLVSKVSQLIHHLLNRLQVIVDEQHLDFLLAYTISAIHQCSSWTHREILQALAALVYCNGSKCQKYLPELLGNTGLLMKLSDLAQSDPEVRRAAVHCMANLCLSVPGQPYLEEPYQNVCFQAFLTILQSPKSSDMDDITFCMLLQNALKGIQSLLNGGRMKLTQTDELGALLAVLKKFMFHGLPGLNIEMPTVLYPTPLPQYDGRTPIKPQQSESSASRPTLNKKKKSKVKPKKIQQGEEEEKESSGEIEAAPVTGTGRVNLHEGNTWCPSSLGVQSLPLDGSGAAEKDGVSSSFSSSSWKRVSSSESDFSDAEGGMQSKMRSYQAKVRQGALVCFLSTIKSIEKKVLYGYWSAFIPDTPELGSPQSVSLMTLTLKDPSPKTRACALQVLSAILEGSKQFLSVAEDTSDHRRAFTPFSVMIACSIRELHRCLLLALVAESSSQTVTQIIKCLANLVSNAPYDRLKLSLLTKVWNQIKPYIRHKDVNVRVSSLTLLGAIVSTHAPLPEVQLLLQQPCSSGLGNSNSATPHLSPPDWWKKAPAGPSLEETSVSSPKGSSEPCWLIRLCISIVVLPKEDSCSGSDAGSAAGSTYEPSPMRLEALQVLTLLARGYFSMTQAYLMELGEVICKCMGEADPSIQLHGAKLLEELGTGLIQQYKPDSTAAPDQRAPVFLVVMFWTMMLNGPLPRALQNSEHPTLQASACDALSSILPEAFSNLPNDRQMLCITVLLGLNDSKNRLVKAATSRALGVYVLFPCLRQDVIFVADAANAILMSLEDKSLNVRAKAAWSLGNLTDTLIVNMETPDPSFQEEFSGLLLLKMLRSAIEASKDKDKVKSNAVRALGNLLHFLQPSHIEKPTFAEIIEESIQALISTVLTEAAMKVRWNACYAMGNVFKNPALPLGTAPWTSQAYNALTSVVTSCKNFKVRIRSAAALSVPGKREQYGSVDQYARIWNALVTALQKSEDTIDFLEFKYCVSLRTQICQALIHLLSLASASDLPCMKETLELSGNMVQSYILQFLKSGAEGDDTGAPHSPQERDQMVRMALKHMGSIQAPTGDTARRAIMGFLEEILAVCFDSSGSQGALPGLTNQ
UniProt Q9BX68: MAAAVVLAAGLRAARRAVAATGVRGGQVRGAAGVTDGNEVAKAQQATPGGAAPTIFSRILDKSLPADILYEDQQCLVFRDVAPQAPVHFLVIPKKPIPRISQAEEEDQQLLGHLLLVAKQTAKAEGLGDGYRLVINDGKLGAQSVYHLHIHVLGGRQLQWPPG
UniProt P05114: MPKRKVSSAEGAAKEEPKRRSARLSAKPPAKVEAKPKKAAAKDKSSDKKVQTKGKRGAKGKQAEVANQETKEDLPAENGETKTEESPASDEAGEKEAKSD
UniProt P0DMV8, whole entry, looked up: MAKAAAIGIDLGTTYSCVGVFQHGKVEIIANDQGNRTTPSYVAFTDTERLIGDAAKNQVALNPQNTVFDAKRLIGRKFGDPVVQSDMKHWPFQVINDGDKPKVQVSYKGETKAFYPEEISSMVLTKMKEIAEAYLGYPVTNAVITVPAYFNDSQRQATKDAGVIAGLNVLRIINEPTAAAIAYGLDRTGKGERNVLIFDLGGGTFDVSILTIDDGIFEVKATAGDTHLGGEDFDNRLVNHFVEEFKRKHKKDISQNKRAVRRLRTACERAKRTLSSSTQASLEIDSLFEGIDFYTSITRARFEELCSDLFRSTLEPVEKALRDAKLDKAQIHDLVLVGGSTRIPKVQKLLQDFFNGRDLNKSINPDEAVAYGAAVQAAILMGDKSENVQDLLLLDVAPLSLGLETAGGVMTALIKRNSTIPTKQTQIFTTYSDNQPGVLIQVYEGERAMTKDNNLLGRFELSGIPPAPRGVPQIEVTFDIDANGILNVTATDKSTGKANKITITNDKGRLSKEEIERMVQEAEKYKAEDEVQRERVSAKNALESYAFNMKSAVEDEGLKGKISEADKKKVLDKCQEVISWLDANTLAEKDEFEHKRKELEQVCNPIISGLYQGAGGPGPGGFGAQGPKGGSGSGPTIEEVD
UniProt H0YH80: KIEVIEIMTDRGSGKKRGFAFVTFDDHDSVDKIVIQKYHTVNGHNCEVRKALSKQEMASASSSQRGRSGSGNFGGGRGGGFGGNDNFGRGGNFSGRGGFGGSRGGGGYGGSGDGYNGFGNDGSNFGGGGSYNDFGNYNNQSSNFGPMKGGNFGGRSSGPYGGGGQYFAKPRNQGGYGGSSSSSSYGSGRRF
UniProt Q7LGA3: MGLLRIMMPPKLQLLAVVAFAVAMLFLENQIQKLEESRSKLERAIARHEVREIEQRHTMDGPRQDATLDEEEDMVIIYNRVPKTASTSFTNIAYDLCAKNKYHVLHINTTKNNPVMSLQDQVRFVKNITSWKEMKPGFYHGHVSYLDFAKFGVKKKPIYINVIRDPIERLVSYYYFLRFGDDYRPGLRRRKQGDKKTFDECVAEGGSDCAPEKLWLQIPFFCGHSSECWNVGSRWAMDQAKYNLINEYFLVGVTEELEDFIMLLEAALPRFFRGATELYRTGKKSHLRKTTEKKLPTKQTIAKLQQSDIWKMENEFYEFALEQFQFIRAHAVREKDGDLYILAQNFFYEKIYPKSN
UniProt P48723: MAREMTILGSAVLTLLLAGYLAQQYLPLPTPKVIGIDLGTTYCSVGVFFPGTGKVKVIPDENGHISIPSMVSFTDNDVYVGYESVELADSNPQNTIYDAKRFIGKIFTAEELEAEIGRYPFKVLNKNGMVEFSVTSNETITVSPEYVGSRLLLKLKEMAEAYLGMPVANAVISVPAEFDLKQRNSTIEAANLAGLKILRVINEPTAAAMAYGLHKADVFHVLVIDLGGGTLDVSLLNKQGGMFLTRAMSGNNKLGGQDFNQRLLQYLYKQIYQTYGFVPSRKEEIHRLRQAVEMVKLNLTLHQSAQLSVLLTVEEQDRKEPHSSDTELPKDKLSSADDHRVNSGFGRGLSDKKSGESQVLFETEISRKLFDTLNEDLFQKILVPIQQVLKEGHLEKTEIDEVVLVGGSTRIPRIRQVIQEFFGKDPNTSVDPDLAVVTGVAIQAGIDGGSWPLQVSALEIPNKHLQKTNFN
UniProt Q9NP66: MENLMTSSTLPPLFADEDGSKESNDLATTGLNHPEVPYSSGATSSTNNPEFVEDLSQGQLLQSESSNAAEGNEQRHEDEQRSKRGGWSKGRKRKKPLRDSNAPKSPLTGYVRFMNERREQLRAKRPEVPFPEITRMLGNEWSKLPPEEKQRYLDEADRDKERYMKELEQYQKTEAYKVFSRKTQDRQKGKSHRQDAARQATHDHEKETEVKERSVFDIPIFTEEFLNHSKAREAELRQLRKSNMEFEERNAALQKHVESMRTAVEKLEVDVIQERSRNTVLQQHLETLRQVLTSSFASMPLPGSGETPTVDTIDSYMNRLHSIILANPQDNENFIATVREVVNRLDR
UniProt Q3SXM5: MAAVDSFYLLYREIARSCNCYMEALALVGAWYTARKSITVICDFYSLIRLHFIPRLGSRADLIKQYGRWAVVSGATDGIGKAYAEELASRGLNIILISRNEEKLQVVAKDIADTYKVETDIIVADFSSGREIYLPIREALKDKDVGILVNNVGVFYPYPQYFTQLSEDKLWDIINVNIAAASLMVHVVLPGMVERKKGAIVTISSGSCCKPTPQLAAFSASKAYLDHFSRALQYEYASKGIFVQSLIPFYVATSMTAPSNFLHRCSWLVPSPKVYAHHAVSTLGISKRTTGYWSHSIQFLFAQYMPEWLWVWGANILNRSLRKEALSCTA
UniProt Q9NRV9: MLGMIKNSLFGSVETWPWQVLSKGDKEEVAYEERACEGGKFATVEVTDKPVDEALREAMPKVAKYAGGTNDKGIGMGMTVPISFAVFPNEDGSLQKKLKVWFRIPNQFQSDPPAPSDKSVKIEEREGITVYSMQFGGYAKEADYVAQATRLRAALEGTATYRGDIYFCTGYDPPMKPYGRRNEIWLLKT
UniProt Q0VDF9: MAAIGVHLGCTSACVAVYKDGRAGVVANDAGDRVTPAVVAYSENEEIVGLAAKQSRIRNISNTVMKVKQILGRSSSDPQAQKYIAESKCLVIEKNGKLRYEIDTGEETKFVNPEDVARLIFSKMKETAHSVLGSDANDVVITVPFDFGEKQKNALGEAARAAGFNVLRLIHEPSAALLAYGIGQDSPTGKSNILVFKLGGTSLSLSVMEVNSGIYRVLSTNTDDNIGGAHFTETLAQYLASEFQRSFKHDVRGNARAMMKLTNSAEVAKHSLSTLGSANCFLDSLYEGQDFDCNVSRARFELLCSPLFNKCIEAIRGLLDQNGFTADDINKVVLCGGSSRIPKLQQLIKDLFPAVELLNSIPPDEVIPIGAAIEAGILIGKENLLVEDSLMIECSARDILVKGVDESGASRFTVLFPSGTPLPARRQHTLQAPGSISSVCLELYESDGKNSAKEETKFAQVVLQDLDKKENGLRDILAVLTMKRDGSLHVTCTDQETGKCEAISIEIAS
UniProt Q58FF7, whole entry, looked up: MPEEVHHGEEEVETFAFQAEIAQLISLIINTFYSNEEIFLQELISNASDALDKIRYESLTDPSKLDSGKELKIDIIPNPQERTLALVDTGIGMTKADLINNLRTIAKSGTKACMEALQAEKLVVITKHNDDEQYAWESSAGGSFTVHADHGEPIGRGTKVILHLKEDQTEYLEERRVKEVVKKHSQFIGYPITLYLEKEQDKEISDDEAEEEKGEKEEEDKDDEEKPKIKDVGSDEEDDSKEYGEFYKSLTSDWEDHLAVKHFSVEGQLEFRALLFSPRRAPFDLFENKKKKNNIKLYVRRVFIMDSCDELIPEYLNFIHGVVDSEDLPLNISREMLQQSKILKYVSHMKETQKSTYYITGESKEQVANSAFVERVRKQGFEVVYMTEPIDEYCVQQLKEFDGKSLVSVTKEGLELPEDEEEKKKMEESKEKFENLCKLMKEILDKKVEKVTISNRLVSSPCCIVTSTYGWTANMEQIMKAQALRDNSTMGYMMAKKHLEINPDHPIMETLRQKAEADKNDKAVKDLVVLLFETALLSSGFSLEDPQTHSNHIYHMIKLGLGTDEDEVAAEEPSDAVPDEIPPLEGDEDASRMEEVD
UniProt P52597: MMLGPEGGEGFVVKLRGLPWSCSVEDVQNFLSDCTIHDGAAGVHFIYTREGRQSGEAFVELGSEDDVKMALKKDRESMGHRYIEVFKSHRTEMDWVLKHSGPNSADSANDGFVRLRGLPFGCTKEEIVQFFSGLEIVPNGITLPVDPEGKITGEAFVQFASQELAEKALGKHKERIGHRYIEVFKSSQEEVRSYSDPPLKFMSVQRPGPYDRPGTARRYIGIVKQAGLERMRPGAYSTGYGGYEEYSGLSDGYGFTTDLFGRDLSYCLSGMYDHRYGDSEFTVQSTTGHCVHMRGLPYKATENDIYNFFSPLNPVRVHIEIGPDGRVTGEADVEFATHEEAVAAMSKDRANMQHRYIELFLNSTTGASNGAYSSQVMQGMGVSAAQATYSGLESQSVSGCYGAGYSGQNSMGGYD

pictilisib = compound: CS(=O)(=O)N1CCN(Cc2cc3nc(-c4cccc5[nH]ncc45)nc(N4CCOCC4)c3s2)CC1 [pictilisib]
How it was run: as §1

crizotinib = compound: C[C@@H](Oc1cc(-c2cnn(C3CCNCC3)c2)cnc1N)c1c(Cl)ccc(F)c1Cl [crizotinib]
How it was run: as §1

[1] = compound: C[C@H](C1=CC=C(C=C1)C(=O)NC2=C3C=CNC3=NC=C2)N
How it was run: as §1

duvelisib = compound: C[C@H](Nc1ncnc2nc[nH]c12)c1cc2cccc(Cl)c2c(=O)n1-c1ccccc1 [duvelisib]
How it was run: as §1

gandotinib = compound: Cc1cc(Nc2cc(CN3CCOCC3)c3nc(C)c(Cc4ccc(Cl)cc4F)n3n2)n[nH]1 [gandotinib]
How it was run: as §1

tozasertib = compound: Cc1cc(Nc2cc(N3CCN(C)CC3)nc(Sc3ccc(NC(=O)C4CC4)cc3)n2)n[nH]1 [tozasertib]
How it was run: as §1

doramapimod = compound: Cc1ccc(-n2nc(C(C)(C)C)cc2NC(=O)Nc2ccc(OCCN3CCOCC3)c3ccccc23)cc1 [doramapimod]
How it was run: as §1

bafetinib = compound: Cc1ccc(NC(=O)c2ccc(CN3CC[C@H](N(C)C)C3)c(C(F)(F)F)c2)cc1Nc1nccc(-c2cncnc2)n1 [bafetinib]
How it was run: as §1

[2] = compound: Cc1cccc(CC(=O)N2CCc3c2ccc(-c2cn(C)c4ncnc(N)c24)c3F)n1
How it was run: as §1

nilotinib = compound: Cc1cn(-c2cc(NC(=O)c3ccc(C)c(Nc4nccc(-c5cccnc5)n4)c3)cc(C(F)(F)F)c2)cn1 [nilotinib]
How it was run: as §1

[3] = compound: Cc1nc(Nc2n[nH]c3c2CN(C(=O)N[C@H](CN(C)C)c2ccccc2)C3(C)C)c2sccc2n1
How it was run: as §1

dasatinib = compound: Cc1nc(Nc2ncc(C(=O)Nc3c(C)cccc3Cl)s2)cc(N2CCN(CCO)CC2)n1 [dasatinib]
How it was run: as §1

[4] = compound: Cc1ncc(-c2ccnc(Nc3ccc(S(C)(=O)=O)cc3)n2)n1C(C)C
How it was run: as §1

[5] = compound: Cn1cc(-c2ccc3c(c2)CCN3C(=O)Cc2cccc(C(F)(F)F)c2)c2c(N)ncnc21
How it was run: as §1

quisinostat = compound: Cn1cc(CNCC2CCN(c3ncc(C(=O)NO)cn3)CC2)c2ccccc21 [quisinostat]
How it was run: as §1

tipifarnib = compound: Cn1cncc1[C@@](N)(c1ccc(Cl)cc1)c1ccc2c(c1)c(-c1cccc(Cl)c1)cc(=O)n2C [tipifarnib]
How it was run: as §1

[6] = compound: NC(=O)Nc1cc(-c2cccc(F)c2)sc1C(=O)N[C@H]1CCCNC1
How it was run: as §1

[7] = compound: NC(=O)c1cnc(N[C@@H]2CCCC[C@@H]2N)nc1Nc1cccc(-n2nccn2)c1
How it was run: as §1

[8] = compound: NC1(c2ccc(-c3nc4ccn5c(=O)[nH]nc5c4cc3-c3ccccc3)cc2)CCC1
How it was run: as §1

Measured: log2 fold change

HMG20B (UniProt Q9P0W2)
inactive: lapatinib -0.056 | pictilisib 0.009 | crizotinib 0.003 | [1] -0.013 | duvelisib -0.027 | gandotinib -0.082 | tozasertib -0.103 | doramapimod -0.009 | bafetinib -0.054 | [2] -0.03 | nilotinib -0.01 | [3] 0.026 | dasatinib 0.005 | [4] 0.06 | [5] 0.021 | quisinostat -0.087 | tipifarnib -0.018 | [6] 0.039 | [7] 0.049 | [8] -0.036

HNRNPR (UniProt O43390)
inactive: lapatinib -0.066 | pictilisib -0.039 | crizotinib -0.132 | [1] 0.001 | duvelisib -0.03 | gandotinib -0.046 | tozasertib 0.111 | doramapimod 0.118 | bafetinib -0.004 | [2] -0.054 | nilotinib -0.001 | [3] 0.112 | dasatinib 0.02 | [4] 0.263 | [5] -0.074 | quisinostat -0.067 | tipifarnib -0.006 | [6] -0.034 | [7] 0.004 | [8] -0.036

HEATR6 (UniProt Q6AI08)
inactive: lapatinib -0.014 | pictilisib -0.033 | crizotinib -0.112 | [1] -0.037 | duvelisib 0.084 | gandotinib 0.003 | tozasertib -0.003 | doramapimod -0.011 | bafetinib 0.054 | [2] 0.045 | nilotinib -0.085 | [3] 0.022 | dasatinib -0.019 | [4] 0.022 | [5] 0 | quisinostat -0.008 | tipifarnib -0.06 | [6] 0.055 | [7] 0.041 | [8] 0.026

HECTD4 (UniProt J3KPF0)
inactive: lapatinib -0.024 | pictilisib -0.043 | crizotinib -0.127 | [1] -0.005 | duvelisib -0.004 | gandotinib -0.024 | tozasertib 0.01 | doramapimod -0.002 | bafetinib -0.083 | [2] 0.101 | nilotinib 0.014 | [3] -0.009 | dasatinib -0.077 | [4] -0.007 | [5] 0.037 | quisinostat -0.145 | tipifarnib 0.016 | [6] 0.02 | [7] 0.011 | [8] 0.017

HINT2 (UniProt Q9BX68)
inactive: lapatinib 0.045 | pictilisib -0.015 | crizotinib -0.031 | [1] 0.254 | duvelisib 0.106 | gandotinib 0.032 | tozasertib 0.051 | doramapimod 0.017 | bafetinib -0.094 | [2] -0.047 | nilotinib 0.115 | [3] 0.026 | dasatinib -0.02 | [4] 0.076 | [5] 0.034 | quisinostat 0.063 | tipifarnib 0.035 | [6] -0.034 | [7] -0.02 | [8] 0.091

HMGN1 (UniProt P05114)
inactive: lapatinib 0.017 | pictilisib 0.014 | crizotinib 0.056 | [1] 0.041 | duvelisib 0.052 | gandotinib 0.02 | tozasertib -0.011 | doramapimod -0.075 | bafetinib 0.01 | [2] -0.099 | nilotinib -0.01 | [3] 0.022 | dasatinib 0.086 | [4] -0.012 | [5] 0.045 | quisinostat 0.008 | tipifarnib -0.028 | [6] -0.016 | [7] -0.005 | [8] -0.013

HSPA1A (UniProt P0DMV8)
inactive: lapatinib -0.001 | pictilisib 0.029 | crizotinib 0.012 | [1] 0.201 | duvelisib 0.022 | gandotinib -0.085 | tozasertib 0.024 | doramapimod -0.002 | bafetinib 0.077 | [2] -0.078 | nilotinib -0.009 | [3] 0.018 | dasatinib 0.012 | [4] -0.004 | [5] 0.002 | quisinostat 0.012 | tipifarnib 0.01 | [6] -0.011 | [7] 0.006 | [8] -0.006

HNRNPA1 (UniProt H0YH80)
inactive: lapatinib 0.059 | pictilisib 0.147 | crizotinib 0.053 | [1] -0.046 | duvelisib 0.022 | gandotinib 0.043 | tozasertib 0.006 | doramapimod 0.022 | bafetinib 0.026 | [2] -0.045 | nilotinib -0.023 | [3] -0.077 | dasatinib -0.14 | [4] -0.185 | [5] -0.093 | quisinostat -0.048 | tipifarnib 0.019 | [6] 0.068 | [7] -0.066 | [8] -0.038

HS2ST1 (UniProt Q7LGA3)
inactive: lapatinib 0.045 | pictilisib 0.022 | crizotinib -0.007 | [1] 0.003 | duvelisib 0.01 | gandotinib -0.008 | tozasertib -0.05 | doramapimod 0.016 | bafetinib 0.059 | [2] 0.023 | nilotinib 0.025 | [3] 0.1 | dasatinib 0.034 | [4] -0.063 | [5] -0.039 | quisinostat 0.075 | tipifarnib -0.021 | [6] 0.01 | [7] -0.004 | [8] 0.016

HSPA13 (UniProt P48723)
inactive: lapatinib -0.013 | pictilisib -0.007 | crizotinib 0.007 | [1] 0.016 | duvelisib -0.031 | gandotinib -0.049 | tozasertib 0 | doramapimod 0.024 | bafetinib -0.032 | [2] 0 | nilotinib 0.025 | [3] -0.038 | dasatinib -0.001 | [4] -0.045 | [5] 0.065 | quisinostat -0.027 | tipifarnib -0.02 | [6] 0.051 | [7] 0.016 | [8] 0.036

HMG20A (UniProt Q9NP66)
inactive: lapatinib -0.034 | pictilisib -0.036 | crizotinib 0.034 | [1] -0.021 | duvelisib 0.025 | gandotinib 0.029 | tozasertib 0.053 | doramapimod -0.034 | bafetinib 0.032 | [2] 0.038 | nilotinib -0.032 | [3] 0.011 | dasatinib 0.046 | [4] -0.019 | [5] 0.003 | quisinostat 0 | tipifarnib 0.01 | [6] 0.013 | [7] -0.009 | [8] 0.091

HSDL1 (UniProt Q3SXM5)
inactive: lapatinib -0.017 | pictilisib -0.008 | crizotinib -0.042 | [1] -0.224 | duvelisib -0.007 | gandotinib 0.094 | tozasertib -0.041 | doramapimod 0.014 | bafetinib -0.031 | [2] 0.023 | nilotinib 0.071 | [3] 0.012 | dasatinib 0.009 | [4] 0.096 | [5] -0.034 | quisinostat -0.01 | tipifarnib -0.026 | [6] -0.013 | [7] -0.002 | [8] 0.024

HEBP1 (UniProt Q9NRV9)
inactive: lapatinib 0.026 | pictilisib 0.08 | crizotinib 0.201 | [1] 0.033 | duvelisib 0 | gandotinib 0.138 | tozasertib 0.026 | doramapimod -0.045 | bafetinib 0.056 | [2] -0.038 | nilotinib 0 | [3] -0.039 | dasatinib 0.14 | [4] -0.043 | [5] -0.03 | quisinostat 0.023 | tipifarnib 0.001 | [6] -0.051 | [7] -0.028 | [8] -0.097

HSPA14 (UniProt Q0VDF9)
inactive: lapatinib -0.016 | pictilisib 0.023 | crizotinib -0.02 | [1] -0.038 | duvelisib 0.007 | gandotinib -0.039 | tozasertib 0.018 | doramapimod 0.003 | bafetinib -0.026 | [2] 0.037 | nilotinib -0.032 | [3] -0.001 | dasatinib -0.018 | [4] 0.009 | [5] 0.034 | quisinostat -0.026 | tipifarnib 0.021 | [6] 0.037 | [7] 0.001 | [8] -0.025

HSP90AB3P (UniProt Q58FF7)
inactive: lapatinib -0.01 | pictilisib -0.031 | crizotinib 0.047 | [1] -0.031 | duvelisib 0.007 | gandotinib -0.047 | tozasertib -0.027 | doramapimod -0.134 | bafetinib -0.098 | [2] 0.06 | nilotinib -0.039 | [3] 0.157 | dasatinib 0.014 | [4] 0.171 | [5] 0.038 | quisinostat 0.074 | tipifarnib 0.039 | [6] 0.045 | [7] -0.021 | [8] 0.031

HNRNPF (UniProt P52597)
inactive: lapatinib 0.003 | pictilisib 0.013 | crizotinib -0.013 | [1] -0.012 | duvelisib 0.005 | gandotinib 0.041 | tozasertib -0.006 | doramapimod 0.078 | bafetinib -0.013 | [2] 0.008 | nilotinib -0.044 | [3] -0.015 | dasatinib -0.003 | [4] 0.024 | [5] 0.009 | quisinostat -0.062 | tipifarnib -0.019 | [6] 0.029 | [7] -0.013 | [8] -0.039

Quoted at random: two entries already listed
HSDL1 (UniProt Q3SXM5)
inactive: lapatinib -0.017 | pictilisib -0.008 | crizotinib -0.042 | [1] -0.224 | duvelisib -0.007 | gandotinib 0.094 | tozasertib -0.041 | doramapimod 0.014 | bafetinib -0.031 | [2] 0.023 | nilotinib 0.071 | [3] 0.012 | dasatinib 0.009 | [4] 0.096 | [5] -0.034 | quisinostat -0.01 | tipifarnib -0.026 | [6] -0.013 | [7] -0.002 | [8] 0.024

HSP90AB3P (UniProt Q58FF7)
inactive: lapatinib -0.01 | pictilisib -0.031 | crizotinib 0.047 | [1] -0.031 | duvelisib 0.007 | gandotinib -0.047 | tozasertib -0.027 | doramapimod -0.134 | bafetinib -0.098 | [2] 0.06 | nilotinib -0.039 | [3] 0.157 | dasatinib 0.014 | [4] 0.171 | [5] 0.038 | quisinostat 0.074 | tipifarnib 0.039 | [6] 0.045 | [7] -0.021 | [8] 0.031
